Laboratory results published in publication PMC7018646.
No constants are given. Whether binding was seen depends on the method and setting.

By UniProt entry, the sequences of proteins in these tests, tags left out.
UniProt P40709: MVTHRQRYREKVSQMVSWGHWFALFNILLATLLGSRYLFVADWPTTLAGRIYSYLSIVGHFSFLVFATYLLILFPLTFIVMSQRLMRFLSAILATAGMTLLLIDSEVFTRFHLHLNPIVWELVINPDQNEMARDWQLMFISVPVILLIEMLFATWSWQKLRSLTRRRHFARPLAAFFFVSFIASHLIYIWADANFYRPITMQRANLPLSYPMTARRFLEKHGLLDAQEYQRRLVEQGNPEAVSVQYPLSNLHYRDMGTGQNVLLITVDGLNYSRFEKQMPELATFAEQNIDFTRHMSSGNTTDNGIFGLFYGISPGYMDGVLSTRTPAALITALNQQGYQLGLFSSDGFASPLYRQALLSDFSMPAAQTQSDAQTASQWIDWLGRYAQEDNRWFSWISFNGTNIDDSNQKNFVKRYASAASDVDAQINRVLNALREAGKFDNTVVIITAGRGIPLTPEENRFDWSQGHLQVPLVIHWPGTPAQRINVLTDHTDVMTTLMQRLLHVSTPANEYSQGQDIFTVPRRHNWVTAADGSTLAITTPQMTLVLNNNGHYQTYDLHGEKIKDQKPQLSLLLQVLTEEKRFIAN

Biological target: PbgA (PhoPQ barrier gene A), full-length, S. Typhimurium (S. Typhimurium 14028s) (UniProt P40709)
Assay: SEC-MALS; PbgA in solution; conditions of the SEC-MALS run are not told (protein purified in 20 mM HEPES pH 7.0, 150 mM NaCl, 0.03% DDM); both purified

For “PbgA (PhoPQ barrier gene A), full-length, S. Typhimurium (from UniProt P40709 1-586)”, the binding was “no binding”.
